Results reported in doi:10.1101/2024.04.03.587867.
Results are given in words; binding and its absence hold for the method and conditions named. Binding seen in cells or lysates may run through a third protein. Here binding means that the protein was enriched with, or labelled near, the bait; the list need not be complete.

Experiments:
[1] = molecular target: FLAG-tagged SP110 ΔCARD (human); experiment: affinity purification with mass spectrometry
[2] = molecular target: FLAG-tagged full-length SP110 (speckled protein 110) (human); experiment: affinity purification with mass spectrometry

binding [1]: binds
binding [2]: binds
B1: SENP7, a deSUMOlyase (enzyme, UniProt Q9BQF6 1-1050)
chain: MDKRKLGRRPSSSEIITEGKRKKSSSDLSEIRKMLNAKPEDVHVQSPLSKFRSSERWTLPLQWERSLRNKVISLDHKNKKHIRGCPVTSKSSPERQLKVMLTNVLWTDLGRKFRKTLPRNDANLCDANKVQSDSLPSTSVDSLETCQKLEPLRQSLNLSERIPRVILTNVLGTELGRKYIRTPPVTEGSLSDTDNLQSEQLSSSSDGSLESYQNLNPHKSCYLSERGSQRSKTVDDNSAKQTAHNKEKRRKDDGISLLISDTQPEDLNSGSRGCDHLEQESRNKDVKYSDSKVELTLISRKTKRRLRNNLPDSQYCTSLDKSTEQTKKQEDDSTISTEFEKPSENYHQDPKLPEEITTKPTKSDFTKLSSLNSQELTLSNATKSASAGSTTETVENSNSIDIVGISSLVEKDENELNTIEKPILRGHNEGNQSLISAEPIVVSSDEEGPVEHKSSEILKLQSKQDRETTNENESTSESALLELPLITCESVQMSSELCPYNPVMENISSIMPSNEMDLQLDFIFTSVYIGKIKGASKGCVTITKKYIKIPFQVSLNEISLLVDTTHLKRFGLWKSKDDNHSKRSHAILFFWVSSDYLQEIQTQLEHSVLSQQSKSSEFIFLELHNPVSQREELKLKDIMTEISIISGELELSYPLSWVQAFPLFQNLSSKESSFIHYYCVSTCSFPAGVAVAEEMKLKSVSQPSNTDAAKPTYTFLQKQSSGCYSLSITSNPDEEWREVRHTGLVQKLIVYPPPPTKGGLGVTNEDLECLEEGEFLNDVIIDFYLKYLILEKASDELVERSHIFSSFFYKCLTRKENNLTEDNPNLSMAQRRHKRVRTWTRHINIFNKDYIFVPVNESSHWYLAVICFPWLEEAVYEDFPQTVSQQSQAQQSQNDNKTIDNDLRTTSTLSLSAEDSQSTESNMSVPKKMCKRPCILILDSLKAASVQNTVQNLREYLEVEWEVKLKTHRQFSKTNMVDLCPKVPKQDNSSDCGVYLLQYVESFFKDPIVNFELPIHLEKWFPRHVIKTKREDIRELILKLHLQQQKGSSS
